Among the data in article PMC7819943, “Rice protein-binding microarrays: a tool to detect cis-acting elements near promoter regions in rice” are binding signal values, retold here.

Amino acid sequences for entries named in this document (tags omitted).
UniProt Q0JBA9, entry or part of it: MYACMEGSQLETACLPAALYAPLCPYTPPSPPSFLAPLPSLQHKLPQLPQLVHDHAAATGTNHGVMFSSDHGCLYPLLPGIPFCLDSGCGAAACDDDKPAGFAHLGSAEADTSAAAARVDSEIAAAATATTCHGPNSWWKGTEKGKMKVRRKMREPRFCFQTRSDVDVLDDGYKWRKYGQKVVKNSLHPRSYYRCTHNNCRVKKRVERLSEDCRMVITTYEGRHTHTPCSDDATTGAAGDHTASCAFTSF

The other results are listed elsewhere or left out.

The target of the test is OsWRKY34 (Oryza sativa, UniProt Q0JBA9 1-250). As to the kind of experiment: protein-binding microarray (RPBM); PBS, 2% BSA, 51.3 ng/ul salmon testes DNA, 50 uM zinc acetate, 200 nM TF, 25 C, 1 h; high values mean tight binding. As to conditions: protein: recombinant; tags: N-terminal polyhistidine and DsRed monomer fusion (pET32a); label: CyDye5-dUTP incorporated in the synthesized complementary strand; 3' TTTTT single-stranded linker to array surface; dsDNA, one strand shown. Summed up:
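In PBS with 2% BSA, salmon testes DNA and 50 µM zinc acetate, 200 nM protein was incubated on a custom Agilent array at 25 °C for 1 h and then washed off. The array had been made double-stranded by primer extension with Cy5-dUTP and blocked with 2% BSA. The proteins were transcription factors fused N-terminally to polyhistidine and DsRed, expressed in E. coli BL21-CodonPlus and purified on Ni–NTA. The binding signal is per-feature fluorescence intensity (arbitrary units) from an Axon 4000B scanner.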
With “CCGCTCTGCTCTGGTCTGCTCTGCTGCGAGGGTGGGTGTTCGGAGTCACCTAGTGCAG”, the binding signal is 12700 fluorescence intensity (a.u.). With “ATCGATTCTTCCCAGCTACGCGACTCTTCCTCGCTTTCTCCGGAGTCACCTAGTGCAG” the figure was 14000 fluorescence intensity (a.u.); with “CTGGTTAACTTAGTTATTGTGTTTCGATCCAACGAGTTCCCGGAGTCACCTAGTGCAG”, 9050 fluorescence intensity (a.u.).

In the case of “AGGATCGAGGAATTCAGTTAAGCAAAAATATTTATACATGCGGAGTCACCTAGTGCAG”, the binding signal is 47600 fluorescence intensity (a.u.). On to “ACTCTCTCATCATCTTTGGTCATTACGTTCAAAATTTTGTCGGAGTCACCTAGTGCAG”, for which the binding signal was 10200 fluorescence intensity (a.u.).

As to “AAACGGTTCGATCTATTCTCGTCTCCTCTCGTTTTCAGTCCGGAGTCACCTAGTGCAG”, the binding signal is 12500 fluorescence intensity (a.u.). With “AGGTGTGTATCGTACCGTGGCGGGCGCTTTCCTGGTGGGGCGGAGTCACCTAGTGCAG” the figure was 10200 fluorescence intensity (a.u.); with “TTTGTCCATTCGGCCCATGTCCAACACGCCCCACGGCCCTCGGAGTCACCTAGTGCAG”, 13500 fluorescence intensity (a.u.); with “TCTTTTCATCCCCAACCAGTCCTTTTTTCTTCTGTTTATTCGGAGTCACCTAGTGCAG”, 11700 fluorescence intensity (a.u.). Consider “TTTCTGCTTCTGGTTTGGTGTGGATTGTGCAGGGGAGTTTCGGAGTCACCTAGTGCAG”, for which the binding signal was 12000 fluorescence intensity (a.u.). As for “CCTATATGGCCCAACATGTCATCTCCCTACTCCCTCTTCTCGGAGTCACCTAGTGCAG”, the binding signal is 8560 fluorescence intensity (a.u.). On to “TATGACGCCGTTGACTTATTGACTAACGTTTGACCATTCGCGGAGTCACCTAGTGCAG”, for which the binding signal was 21500 fluorescence intensity (a.u.).

On to “TCATCCTTTTGTCATTCAGAATTTCCCCATTTTTCTTGTTCGGAGTCACCTAGTGCAG”, for which the binding signal is 8060 fluorescence intensity (a.u.).

Consider “CTACATTTTTTTTCAATTGACGCACACAATCTTTCTATATCGGAGTCACCTAGTGCAG”, for which the binding signal is 8730 fluorescence intensity (a.u.). Regarding “GGTTAGGGTTAGATTTGTTCCAACTATTCGGTGAGCTCCTCGGAGTCACCTAGTGCAG”, the binding signal is 10300 fluorescence intensity (a.u.). Take “ACTCACACACTTATATCACCGTTGGTAATGGTCACTCTATCGGAGTCACCTAGTGCAG”: the binding signal was 9210 fluorescence intensity (a.u.). On to “CTTCTCTCTATACAATCTCCCAATGTTTCAGTCTTCAGATCGGAGTCACCTAGTGCAG”, for which the binding signal was 8740 fluorescence intensity (a.u.). In the case of “CTCTCTCTCATCTCTCGTCGTTTTCTCTCTCCTCGATCGACGGAGTCACCTAGTGCAG”, the binding signal is 14600 fluorescence intensity (a.u.).

Regarding “AGGACAGAGGAGAGGGGAGGGGTAATATGTGTCCAATAATCGGAGTCACCTAGTGCAG”, the binding signal is 10500 fluorescence intensity (a.u.). The figure for “TCTCCTACGCGCTGCCGATCTTCTTCCGGGTGACGACGGCCGGAGTCACCTAGTGCAG” is 10200 fluorescence intensity (a.u.). In the case of “GGCAGCCATTTTTTCTTTTTTTTTTTCGCTCGTCGGAATTCGGAGTCACCTAGTGCAG”, the binding signal was 8710 fluorescence intensity (a.u.). The figure for “GATGATATCGACGACCGGAGAGGGGTGGGACGAGGAGATGCGGAGTCACCTAGTGCAG” is 8290 fluorescence intensity (a.u.); for “ATTAGTGTCGTGTTGTATAGTTTTTTTTTCTTAATTTAATCGGAGTCACCTAGTGCAG” it is 12900 fluorescence intensity (a.u.); for “TTATACTTTCTCTTTTTTTCACGTGTATATTTTCTAAACCCGGAGTCACCTAGTGCAG” it is 9610 fluorescence intensity (a.u.). With “TCCTTTCCCCAGCATTTCCTCCCTTTTGTTTTTTGATGCACGGAGTCACCTAGTGCAG” the figure was 8980 fluorescence intensity (a.u.).

With “TGGGTGGGTTGGGTGGGTGGGTGGGTGCGCGGCGGGTATGCGGAGTCACCTAGTGCAG”, the binding signal was 32800 fluorescence intensity (a.u.).

As to “CCATTGAGGTTCTTTGCTTCCACCATTCGAAACACCCTCTCGGAGTCACCTAGTGCAG”, the binding signal is 10600 fluorescence intensity (a.u.). The figure for “GCCTTCTCTCTCCGGTTTTCTCTCTCTTCCACCTATGATTCGGAGTCACCTAGTGCAG” is 8360 fluorescence intensity (a.u.).

Turning to “ACCTTTGGTTCCCGCCATTTCCTCCCAACCCATCCCCTCCCGGAGTCACCTAGTGCAG”, the binding signal was 8500 fluorescence intensity (a.u.). Take “AACTGTTTTGATTTTTTTTTCTCTGGTGTTTCATTGGCGTCGGAGTCACCTAGTGCAG”: the binding signal is 14400 fluorescence intensity (a.u.). On to “GGCTGCATCTTTATGGATCTCACATTGCATTGTCGTACTGCGGAGTCACCTAGTGCAG”, for which the binding signal was 9300 fluorescence intensity (a.u.). Turning to “CCTCCCTCACCGTCTTCCGCCTCGCCATCTCCAGCTCCGACGGAGTCACCTAGTGCAG”, the binding signal is 10100 fluorescence intensity (a.u.). The figure for “TAGCCCCAAATCGATTCCTCATCCTGCCCGATGCAAGTGCCGGAGTCACCTAGTGCAG” is 8300 fluorescence intensity (a.u.). The figure for “TTTTCTTGTTTTTAATTACTCTTATCTACTTGATATTTGCCGGAGTCACCTAGTGCAG” is 11000 fluorescence intensity (a.u.); for “TTTACTACTTAACCCTGTCTAGTCTCTTATGACCAGCCGTCGGAGTCACCTAGTGCAG” it is 8510 fluorescence intensity (a.u.).

“CACCCAGAAATTCCCCGAGCCGTGCCGTCCAACACCACTCCGGAGTCACCTAGTGCAG”: the binding signal is 9260 fluorescence intensity (a.u.). On to “AGGCCATGTGAGTAACCGATACCCATATTCTCAACACATACGGAGTCACCTAGTGCAG”, for which the binding signal was 8210 fluorescence intensity (a.u.).

With “TAAGATAAACGGTCAAACATTTGCTAAAAAGTCAACGGTGCGGAGTCACCTAGTGCAG”, the binding signal was 17300 fluorescence intensity (a.u.). The figure for “GAAACGGAGGTGGTTGTTGTATTTAGTTAGTTCGCTACATCGGAGTCACCTAGTGCAG” is 9760 fluorescence intensity (a.u.); for “TATTGTGTTTACTGGCTACAATGTTACCTATAGCTGCGATCGGAGTCACCTAGTGCAG” it is 8140 fluorescence intensity (a.u.); for “CACAGATCCACTCCATTGCTTCACTACTGCTTTGCTTTTGCGGAGTCACCTAGTGCAG” it is 11000 fluorescence intensity (a.u.). With “ATGGTTATTTTTTATCGACGAGTAGGCCTACTTGTTCTGACGGAGTCACCTAGTGCAG” the figure was 8550 fluorescence intensity (a.u.).
